{"sequences": {"note": "By UniProt entry, the sequences of proteins in these tests, tags left out. Where a name states a change or a piece, a line headed by the entry shows the natural chain unless it says otherwise.", "UniProt P51452": "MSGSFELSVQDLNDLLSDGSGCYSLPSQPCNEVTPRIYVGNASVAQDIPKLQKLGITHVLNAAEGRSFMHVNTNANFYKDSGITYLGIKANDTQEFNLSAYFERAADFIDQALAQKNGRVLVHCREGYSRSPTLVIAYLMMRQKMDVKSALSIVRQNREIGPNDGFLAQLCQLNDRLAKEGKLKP", "UniProt P06276, whole entry, looked up": "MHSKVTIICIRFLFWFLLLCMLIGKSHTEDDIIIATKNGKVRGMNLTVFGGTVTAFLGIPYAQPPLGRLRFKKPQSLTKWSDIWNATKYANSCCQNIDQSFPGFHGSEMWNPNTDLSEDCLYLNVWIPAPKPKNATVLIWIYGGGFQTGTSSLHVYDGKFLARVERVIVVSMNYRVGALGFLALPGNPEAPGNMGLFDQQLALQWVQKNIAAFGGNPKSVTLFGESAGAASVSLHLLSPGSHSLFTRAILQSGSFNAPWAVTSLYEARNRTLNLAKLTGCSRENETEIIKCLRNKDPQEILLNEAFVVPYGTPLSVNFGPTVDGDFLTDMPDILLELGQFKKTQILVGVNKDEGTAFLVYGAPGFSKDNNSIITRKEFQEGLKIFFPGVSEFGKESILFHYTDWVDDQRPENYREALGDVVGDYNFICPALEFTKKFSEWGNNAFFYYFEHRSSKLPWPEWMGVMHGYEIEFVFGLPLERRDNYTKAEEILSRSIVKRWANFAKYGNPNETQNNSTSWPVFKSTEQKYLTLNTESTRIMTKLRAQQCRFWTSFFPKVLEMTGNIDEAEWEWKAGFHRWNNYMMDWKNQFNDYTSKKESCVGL", "UniProt P21709": "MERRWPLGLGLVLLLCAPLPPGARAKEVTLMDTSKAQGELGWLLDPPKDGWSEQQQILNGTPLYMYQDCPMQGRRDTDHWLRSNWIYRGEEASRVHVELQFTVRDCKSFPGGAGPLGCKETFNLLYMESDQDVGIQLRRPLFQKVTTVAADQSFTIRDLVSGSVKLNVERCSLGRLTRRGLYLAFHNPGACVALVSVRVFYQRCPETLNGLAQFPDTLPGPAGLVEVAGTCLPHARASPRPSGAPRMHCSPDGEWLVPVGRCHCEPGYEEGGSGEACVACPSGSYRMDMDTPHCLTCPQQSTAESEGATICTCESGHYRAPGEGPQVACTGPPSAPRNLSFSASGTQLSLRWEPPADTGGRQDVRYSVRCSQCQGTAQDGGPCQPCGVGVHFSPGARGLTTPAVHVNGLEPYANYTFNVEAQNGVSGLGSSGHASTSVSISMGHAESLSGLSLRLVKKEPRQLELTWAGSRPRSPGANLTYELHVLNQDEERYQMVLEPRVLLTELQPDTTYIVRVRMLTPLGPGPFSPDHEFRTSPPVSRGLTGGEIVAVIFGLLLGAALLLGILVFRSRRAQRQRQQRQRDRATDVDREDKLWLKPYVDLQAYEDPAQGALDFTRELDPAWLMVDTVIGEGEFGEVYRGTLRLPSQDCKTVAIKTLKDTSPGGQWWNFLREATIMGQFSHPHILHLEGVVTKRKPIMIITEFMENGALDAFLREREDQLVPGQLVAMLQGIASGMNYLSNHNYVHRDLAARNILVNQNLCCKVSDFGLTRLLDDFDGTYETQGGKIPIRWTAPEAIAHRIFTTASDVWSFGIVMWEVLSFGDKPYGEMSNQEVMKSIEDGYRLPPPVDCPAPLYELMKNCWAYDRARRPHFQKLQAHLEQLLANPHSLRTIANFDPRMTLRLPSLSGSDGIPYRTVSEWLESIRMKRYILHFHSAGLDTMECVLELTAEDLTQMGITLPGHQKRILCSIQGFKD"}, "source": "PubChem BioAssay (EPA / NIEHS)", "note": "Where “and” joins values, the source holds several entries; their conditions need not be identical. Identical values can stand only once. This list was built around the results that the source calls inconclusive (neither active nor inactive); the mix of calls is not that of the screen. Potencies of inconclusive entries are doubtful fits and often do not repeat. Calls of active or inactive are those of the source. The calls were made as follows: active = hit-call score of the fitted dose curve at least 0.9, where 1 is the maximum; inconclusive = response in the unintended direction; inactive = score below 0.9.", "data": [{"target": "human Dual Specificity Protein Phosphatase 3 (DUSP3), DUSP3 (gene 1845) (UniProt P51452)", "assay": "NVS_ENZ_hDUSP3: NovaScreen (NVS) Enzymatic Assay for human Dual Specificity Protein Phosphatase 3 (DUSP3) (AID 2283152)", "in_short": "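Cell-free assay with recombinant human DUSP3 and fluorogenic substrate, read by fluorescence intensity. Primary screen ran duplicate at 25 uM; actives followed up in concentration series; loss of signal versus DMSO scored.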", "values": [{"smiles": "CCCCCCCCCCCCCCCCOS(=O)(=O)O", "outcome": "inactive"}, {"smiles": "CCn1c2ccccc2c2cc(N)ccc21", "AC50": "inconclusive: 38.2 µM"}, {"smiles": "CC(C)CCCCCCOC(=O)C1CCCCC1C(=O)OCCCCCCC(C)C", "note": "(centres undefined)", "AC50": "inconclusive: 25 µM"}]}, {"target": "human Esterase Plasma (ES), BCHE (gene 590) (UniProt P06276)", "assay": "NVS_ENZ_hES: NovaScreen (NVS) Enzymatic Assay for human Esterase Plasma (ES) (AID 2283157)", "in_short": "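Esterase from human plasma, cell-free, colorimetric absorbance read 0.25 h after dosing. Screened at 25 uM in duplicate, with threshold-passing chemicals run in concentration-response up to 50 uM; loss of signal fitted versus DMSO.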", "values": [{"smiles": "CCOC(=O)/C=C\\C(=O)OCC", "AC50": "inconclusive: 25 µM"}, {"smiles": "O=CCCCC=O", "outcome": "inactive"}, {"smiles": "CCOC(=O)COc1ccc2c(c1)CC(NCC(O)c1cccc(Cl)c1)CC2", "note": "(centres undefined)", "AC50": "active: 10.9 µM"}, {"smiles": "OC1CCC(C2CCCCC2)CC1", "note": "(centres undefined)", "outcome": "inactive"}, {"smiles": "CCCCCCCCCCCCCCCCCC(=O)O", "AC50": "inconclusive: 25 µM"}, {"smiles": "CN(C)CCCN(C)CCCN(C)C", "AC50": "active: 31.8 µM"}, {"smiles": "CCCCCCCCOc1ccc(C(=O)c2ccccc2)c(O)c1", "AC50": "inconclusive: 25 µM"}]}, {"target": "human Ephrin type-A Receptor 1 (EphA1), EPHA1 (gene 2041) (UniProt P21709)", "assay": "NVS_ENZ_hEphA1: NovaScreen (NVS) Enzymatic Assay for human Ephrin type-A Receptor 1 (EphA1) (AID 2283158);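 also: activity is signal loss versus DMSO meaning EphA1 kinase inhibition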", "in_short": "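Biochemical kinase assay run cell-free; 1 h incubation; readout is fluorescence with mobility-shift separation of product. Concentration-response up to 50 uM for actives from a 25 uM screen.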", "values": [{"smiles": "CCOC(=O)/C=C\\C(=O)OCC", "AC50": "inconclusive: 0.27 µM"}, {"smiles": "CCC(CC)C(=O)O", "AC50": "active: 4.56 µM"}, {"smiles": "CC(=O)/C=C/C1=C(C)CCCC1(C)C", "AC50": "inconclusive: 6.65 µM"}, {"smiles": "c1ccc(Sc2ccccc2)cc1", "outcome": "inactive"}, {"smiles": "Cc1ccc(N)c([N+](=O)[O-])c1", "AC50": "active: 43.4 µM"}, {"smiles": "O=CN1CCCCC1", "AC50": "inconclusive: 0.149 µM"}, {"smiles": "CC(=O)CCC=C(C)C", "AC50": "inconclusive: 0.106 µM"}, {"smiles": "CO[Si](CCCS)(OC)OC", "AC50": "inconclusive: 25 µM"}, {"smiles": "NC(=O)NNC(N)=O", "AC50": "inconclusive: 25 µM"}, {"smiles": "Cc1ccc(S(=O)(=O)O)cc1C", "AC50": "inconclusive: 25 µM"}, {"smiles": "C[C@]12CC[C@@H]3c4ccc(O)cc4C[C@@H](CCCCCCCCCS(=O)CCCC(F)(F)C(F)(F)F)[C@H]3[C@@H]1CC[C@@H]2O", "note": "(some centres undefined)", "outcome": "inactive"}, {"smiles": "Cc1ccc2oc(=O)ccc2c1", "AC50": "inconclusive: 6.16 µM"}, {"smiles": "O=C(N[C@H](CO)[C@H](O)c1ccc([N+](=O)[O-])cc1)C(Cl)Cl", "AC50": "inconclusive: 230 nM and inconclusive: 251 nM"}, {"smiles": "CNC(=S)N(C)C", "AC50": "active: 18.6 µM"}, {"smiles": "O=CN1CCOCC1", "AC50": "inconclusive: 7.36 µM"}, {"smiles": "N#C[C@@H]1CC(F)(F)CN1C(=O)CNC1CC2CCC(C1)N2c1ncccn1", "note": "(some centres undefined)", "AC50": "inconclusive: 9.08 µM"}, {"smiles": "CCC(C)NC(N)=O", "note": "(centres undefined)", "AC50": "inconclusive: 5.34 µM"}, {"smiles": "CC1COc2ccccc2N1C(=O)C(Cl)Cl", "note": "(centres undefined)", "outcome": "inactive"}, {"smiles": "CCn1c2ccccc2c2cc(N)ccc21", "AC50": "active: 19.3 µM"}, {"smiles": "S=c1[nH][nH]c(=S)s1", "AC50": "inconclusive: 22.8 µM"}, {"smiles": "O=C1CCCCCCCCCCCN1", "AC50": "inconclusive: 6.76 µM"}, {"smiles": "Nc1ccc(N)c([N+](=O)[O-])c1", "outcome": "inactive"}, {"smiles": "CCCCOCC(C)O", "note": "(centres undefined)", "AC50": "inconclusive: 25 µM"}, {"smiles": "Nc1ccc(S(=O)(=O)Nc2nccs2)cc1", "AC50": "inconclusive: 6.17 µM"}]}]}
